B1: SMG7 (protein, UniProt Q5RJH6 1-1138)
chain: MSLQSAQYLRQAEVLKAEMTDSKLGPAEVWTSRQALQDLYQKMLVTDLEYALDKKVEQDLWNHAFKNQITTLQGQAKNRANPNRSEVQANLSLFLEAASGFYTQLLQELCTVFNVDLPCRVKSSQLGIISNKQTHSSTIVKPQSSSCSYICQHCLVHLGDIARYRNQTSQAESYYRHAAQLVPSNGQPYNQLAILASSKGDHLTTIFYYCRSIAVKFPFPAASTNLQKALSKALESRDELKTKWGVSDFIKAFIKFHGHVYLSKSLEKLSPLREKLEEQFKRLLFQKAFNSQQLVHVTVINLFQLHHLRDFSNETEQHSYSQDEQLCWTQLLALFMSFLGILCKCPLQNDSQESNNAYPLPAVKVSMDWLRLRPRVFQEAVVDERQYIWPWLISLLNSFHPREDDLSNTNATPLPEEFELQGFLALRPSFRNLDFSKGHQGITGDKEGQQRRIRQQRLISIGKWIADNQPRLIQCENEVGKLLFITEIPELILEDPSEAKENLILQETSVVESLATDGSPGLKSVLSTGRNPSNSCDSGEKPVVTFKENIKPREVNQGRSFPPKEVKSQTELRKTPVSEARKTPVTQTPSQTSNSQFIPIHHPGAFPPLPSRPGFPPPTYVIPPPVAFSMGSGYTFPAGVSVPGTFLQSTAHSPAGNQVQAGKQSHIPYSQQRPSGPGPMNQGPQQSQPPSQPPLTSLPAQPTAQSTSQLQVQALAQQQQSPTKVIPALGKSPPHHSGFQQYQQADASKQLWNPPQVQSPLGKIMPVKQSYYLQTQDPIKLFEPSLQPPVIQQQPLEKKMKPFPMEPYNHNPSEVKVPEFYWDSSYSMADNRAVMAQQPNMDRRSKRSPGVFRPEQDPVPRMPFEDPKSSPLLPPDLLKSLAALEEEEELIFSNPPDLYPALLGPLASLPGRSLFKSLLEKPSELMSHSSSFLSLTGFSVNQERYPNSSMFNEVYGKNLTTSSKAELNPSVASQETSLYSLFEGTPWSPSLPASSDHSTPASQSPHSSNPSSLPSSPPTHNHNSAPFSNFGPIGTPDNRDRRPADRWKTDKPAMGGFGVDYLSATSSSESSWHQASTPSGTWTGHGPSMEDSSAVLMESLKSIWSSSMMHPGPSALEQLLMQQKQKQQRGQGAMNPPH
B2: WDR59 (protein, UniProt Q8C0M0 1-992)
chain: MAARWSSENVVVEFRDSQATAMSVDCLGQHAVLSGRRFLYIVNLDAPFEGHRKISRQSKWDIGAVQWNPHDSFAHYFAASSNQRVDLYKWKDGSGEVGTTLQGHTRVISDLDWAVFEPDLLVTSSVDTYIYIWDIKDTRKPTVALSAVAGASQVKWNKKNANYLATSHDGDVRIWDKRKPSTAVEYLAAHLSKIHGLDWHPDSEHIFATSSQDNSVKFWDYRQPRKYLNILPCQVPVWKARYTPFSNGLVTVMVPQLRRENSLLLWNASDLNAPVHTFVGHDDVVLEFQWRRQKEGSKDYQLVTWSRDQTLRMWRVDYQMQRLCANDILDGVDEFIESISLLPEPEKTPHPQDIDHQPSLSHGEEDAIKEDPPSSLLEEKRSDQLGLPQTLQQEFSLINVQIRNVNVEMDAADRSCTVSVHCSNHRVKMLVTFPAQYPNNAAPSFQFINPTTITSAVKAKLLKILKDTSLQKVKRNQSCLEPCLRQLVSCLESFVNQEDSASSNPFALQNSVTPPLPTFARVTTAYGSYQDANIPFPRTSGARFCGAGYLVYFTRPMTMHRAVSPTEPTPRSLSALSAYHTGLIAPMKIRTEAPGNLRLYSGSPTRSEKEQVSISSFYYKERKSRRWKSKREGSDSGNRPIKAAGKVIIQDVSCLLPVHKSLGELYILNVNDTQETCQKNATSAMLVGRKDLVQVWSLATVATDLCLGPKSDPDLETPWARHPFGRQLLESLWGDRESTRVCGPPLSGARLAHYCQLRDVQTLAMLCSVFEAQSRPQGLPNPFGPFPNRSSNLVVSHSRYPSFTSSGSCSSMSDPGFNTGGWNIAGRETEHISSPWGESSPEELRFGSLTYSDPRERERDQHDKNKRLLDPANTQQFDDFKKCYGEILYRWGLREKRAEVLKFVSCPPDPHKGIEFGVYCSHCRSEVRGTQCAICKGFTFQCAICHVAVRGSSNFCLTCGHGGHTSHMMEWFRTQEVCPTGCGCHCLLESTF
B3: TRIM71 (protein, UniProt Q1PSW8 1-855)
chain: MASFPETDFQICLLCKEMCGSPAPLSSNSSASSSSSQTSTSSAGGGGPGAAARRLHVLPCLHAFCRPCLEAHRLPAPGGAGPAEALKLRCPVCDQKVVLAEAAGMDALPSSAFLLSNLLDAVVATAEEPPPKNGRAGGGPGGAGGHSNHRHHAHHPAQRAAAPAPQPPPGPAASPGSLLMRRPHGCSSCDEGNAASSRCLDCQEHLCDNCVRAHQRVRLTKDHYIERGPPGPAAASAAQQLGLGPPFAGAPFSILSVFPERLGFCQHHDDEVLHLYCDTCSVPICRECTLGRHGGHSFAYLQDALQDSRALTIQLLADAQQGRQALQLSIEQAQTVAEQVEMKAKVVQSEVKAVTARHKKALEDRECELLWKVEKIRQVKAKSLFLQVEKLRQSLSKLESTISAVQQVLEEGRALDILLARDRMLAQVQELKTIRGLLQPQEDDRIMFTPPDQALYLALKSIGFVSSGAFAPLTKATGDGIKRALQGKVASFTVMGYDHDGEPRHSGGDLMSVVVLGPDGNLFGAEVSDQQNGTYIVSYRPQLEGEHLVSVTLYNQHIENSPFKVVVKSGRSYVGIGLPGLSFGSEGDGEGKLCRPWGVSVDKEGFIIVADRSNNRIQVFKPCGSFHHKFGTLGSRPGQFDRPAGVACDASRRIIVADKDNHRIQIFTFEGQFLLKFGEKGTKNGQFNYPWDVAVNSEGKILVSDTRNHRIQLFGPDGVFLNKYGFEGSLWKHFDSPRGVAFNNEGHLVVTDFNNHRLLVIHPDCQSARFLGSEGSGNGQFLRPQGVAVDQEGRIIVADSRNHRVQMFEANGSFLCKFGAQGSGFGQMDRPSGIAVTPDGLIVVVDFGNNRILIF
B4: MIOS (protein, UniProt Q8VE19 1-875)
chain: MSGTKPDILWAPHQVDRFVVCDSELSLYHVESAVNSELKAGSLRLSEDSAATLLSINSDTPYMKCVAWYLNYDPECLLAVGQANGRVVLTSLGQDHNSKFKDLIGKEFVPKHARQCNTLAWNPLDSNWLAAGLDKHRADFSVLIWDICSKYTPDIVPMEKVRLSAGEAETTLLVTKPLYELGQNDASLSLCWLPRDQKLLLAGMHRNLAIFDLRNTSQKMFVNTKAVQGVTVDPYFHDRVASFYEGQVAIWDLRKFEKPVLTLTEQPKPLTKVAWCPTRTGLLATLTRDSNIIRLYDMQHTPTPIGDETEPTIIERSVQPCDNYIASFAWHPTSQNRMIVVTPNRTMSDFTVFERISLAWSPITSLMWACGRHLYECAEEESDNSLEKDIATKMRLRALSRYGLDTEQVWRNHILAGNEDPQLKSLWYTLHFMKQYTEDNDQKSPGNKGSLVYAGIKSIVKSSLGMVESSRHNWSGLDKQTDIQNLNEERILALQLCGWIKKGTDVDVGPFLNSLVQEGEWERAAAVALFNLDIRRAIQILNEGASSEKGDLNLNVVAMALSGYTDEKNSLWREMCSTLRLQLNNPYLCVMFAFLTSEAGAYDGVLYENKVAVRDRVAFACKFLGDAQLNKYIEKLTNEMKEAGNLEGILLTGLTKDGVDLMESYVDRTGDVQTASYCMLQGSPLDVLKDERVQYWIENYRNLLDAWRFWHKRAEFDIHRSKLDPSSKPLAQVFVSCNFCGKSISYSCSSVPHQGRGFSQYGVSGSPTKSKVTSCPGCRKPLPRCALCLINMGTPVSSCPGGSKSDEKVDLSKDKKLAQFNNWFTWCHNCRHGGHAGHMLSWFRDHAECPVSACTCKCMQLDTTGNLVPAETVQP

By UniProt entry, the sequences of proteins in these tests, tags left out.
UniProt P10630: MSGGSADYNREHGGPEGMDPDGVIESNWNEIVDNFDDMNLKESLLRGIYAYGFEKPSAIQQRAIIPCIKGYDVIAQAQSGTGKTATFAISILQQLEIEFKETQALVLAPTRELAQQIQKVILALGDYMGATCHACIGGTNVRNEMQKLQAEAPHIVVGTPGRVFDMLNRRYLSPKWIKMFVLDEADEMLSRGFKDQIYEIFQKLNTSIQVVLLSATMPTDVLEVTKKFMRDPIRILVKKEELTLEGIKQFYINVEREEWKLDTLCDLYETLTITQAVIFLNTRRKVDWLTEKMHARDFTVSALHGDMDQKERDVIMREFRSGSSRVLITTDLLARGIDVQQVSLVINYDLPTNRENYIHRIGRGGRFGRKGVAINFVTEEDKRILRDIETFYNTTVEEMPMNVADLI
UniProt Q80U78: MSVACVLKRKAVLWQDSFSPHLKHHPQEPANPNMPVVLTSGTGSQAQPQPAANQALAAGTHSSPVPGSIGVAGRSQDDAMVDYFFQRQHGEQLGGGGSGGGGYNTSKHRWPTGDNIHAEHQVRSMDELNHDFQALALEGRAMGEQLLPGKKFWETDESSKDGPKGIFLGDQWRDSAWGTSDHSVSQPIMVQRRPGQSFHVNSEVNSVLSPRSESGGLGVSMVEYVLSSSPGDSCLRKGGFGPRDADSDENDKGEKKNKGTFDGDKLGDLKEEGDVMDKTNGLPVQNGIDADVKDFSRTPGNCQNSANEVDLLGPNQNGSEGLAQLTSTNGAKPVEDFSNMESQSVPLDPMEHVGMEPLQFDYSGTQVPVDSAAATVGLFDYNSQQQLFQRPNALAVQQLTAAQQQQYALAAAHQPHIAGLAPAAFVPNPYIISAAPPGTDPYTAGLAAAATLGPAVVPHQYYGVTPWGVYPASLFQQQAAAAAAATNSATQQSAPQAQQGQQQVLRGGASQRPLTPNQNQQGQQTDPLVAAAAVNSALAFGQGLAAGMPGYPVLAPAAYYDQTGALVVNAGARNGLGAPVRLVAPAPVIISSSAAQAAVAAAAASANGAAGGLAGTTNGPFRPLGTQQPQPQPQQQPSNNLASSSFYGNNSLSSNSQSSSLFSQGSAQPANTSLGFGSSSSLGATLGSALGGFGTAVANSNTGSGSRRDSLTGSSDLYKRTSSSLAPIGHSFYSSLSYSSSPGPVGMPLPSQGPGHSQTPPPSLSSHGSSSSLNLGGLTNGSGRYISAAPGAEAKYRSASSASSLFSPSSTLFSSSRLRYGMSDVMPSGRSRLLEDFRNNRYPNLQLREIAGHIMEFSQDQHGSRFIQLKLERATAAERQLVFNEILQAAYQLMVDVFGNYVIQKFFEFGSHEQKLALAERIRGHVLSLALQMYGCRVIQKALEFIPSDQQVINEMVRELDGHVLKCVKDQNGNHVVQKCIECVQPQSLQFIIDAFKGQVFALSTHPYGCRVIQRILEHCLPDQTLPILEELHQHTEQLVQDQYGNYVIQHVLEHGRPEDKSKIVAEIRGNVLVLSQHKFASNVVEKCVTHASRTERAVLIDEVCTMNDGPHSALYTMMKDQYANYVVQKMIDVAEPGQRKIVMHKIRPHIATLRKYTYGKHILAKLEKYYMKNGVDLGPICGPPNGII
UniProt Q9EPU0: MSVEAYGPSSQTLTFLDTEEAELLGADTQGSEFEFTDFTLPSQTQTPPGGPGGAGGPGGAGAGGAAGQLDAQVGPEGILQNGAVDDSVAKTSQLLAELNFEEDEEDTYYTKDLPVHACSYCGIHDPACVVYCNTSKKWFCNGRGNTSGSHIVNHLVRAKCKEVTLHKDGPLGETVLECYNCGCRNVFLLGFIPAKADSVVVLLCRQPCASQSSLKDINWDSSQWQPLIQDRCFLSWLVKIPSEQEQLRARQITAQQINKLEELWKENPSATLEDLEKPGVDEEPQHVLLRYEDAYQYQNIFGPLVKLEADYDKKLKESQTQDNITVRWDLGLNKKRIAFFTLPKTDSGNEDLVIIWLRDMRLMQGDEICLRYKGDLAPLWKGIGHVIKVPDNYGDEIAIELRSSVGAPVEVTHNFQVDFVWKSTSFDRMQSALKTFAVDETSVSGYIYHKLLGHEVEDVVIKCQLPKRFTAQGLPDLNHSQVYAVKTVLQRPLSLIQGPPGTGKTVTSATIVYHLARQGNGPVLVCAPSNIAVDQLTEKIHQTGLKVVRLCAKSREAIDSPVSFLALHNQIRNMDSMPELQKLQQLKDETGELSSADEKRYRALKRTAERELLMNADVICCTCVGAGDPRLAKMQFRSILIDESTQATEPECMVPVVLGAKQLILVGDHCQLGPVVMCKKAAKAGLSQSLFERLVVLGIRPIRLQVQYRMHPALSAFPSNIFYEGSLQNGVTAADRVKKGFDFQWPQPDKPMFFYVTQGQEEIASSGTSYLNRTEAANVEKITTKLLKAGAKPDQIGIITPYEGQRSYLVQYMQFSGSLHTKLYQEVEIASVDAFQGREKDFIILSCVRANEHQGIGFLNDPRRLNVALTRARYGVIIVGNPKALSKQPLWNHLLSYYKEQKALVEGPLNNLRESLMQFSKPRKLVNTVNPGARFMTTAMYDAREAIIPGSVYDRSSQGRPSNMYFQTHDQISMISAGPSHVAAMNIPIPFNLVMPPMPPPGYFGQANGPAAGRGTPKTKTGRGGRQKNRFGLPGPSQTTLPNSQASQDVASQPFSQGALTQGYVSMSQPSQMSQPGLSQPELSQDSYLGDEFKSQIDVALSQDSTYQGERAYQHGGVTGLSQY
UniProt Q61037: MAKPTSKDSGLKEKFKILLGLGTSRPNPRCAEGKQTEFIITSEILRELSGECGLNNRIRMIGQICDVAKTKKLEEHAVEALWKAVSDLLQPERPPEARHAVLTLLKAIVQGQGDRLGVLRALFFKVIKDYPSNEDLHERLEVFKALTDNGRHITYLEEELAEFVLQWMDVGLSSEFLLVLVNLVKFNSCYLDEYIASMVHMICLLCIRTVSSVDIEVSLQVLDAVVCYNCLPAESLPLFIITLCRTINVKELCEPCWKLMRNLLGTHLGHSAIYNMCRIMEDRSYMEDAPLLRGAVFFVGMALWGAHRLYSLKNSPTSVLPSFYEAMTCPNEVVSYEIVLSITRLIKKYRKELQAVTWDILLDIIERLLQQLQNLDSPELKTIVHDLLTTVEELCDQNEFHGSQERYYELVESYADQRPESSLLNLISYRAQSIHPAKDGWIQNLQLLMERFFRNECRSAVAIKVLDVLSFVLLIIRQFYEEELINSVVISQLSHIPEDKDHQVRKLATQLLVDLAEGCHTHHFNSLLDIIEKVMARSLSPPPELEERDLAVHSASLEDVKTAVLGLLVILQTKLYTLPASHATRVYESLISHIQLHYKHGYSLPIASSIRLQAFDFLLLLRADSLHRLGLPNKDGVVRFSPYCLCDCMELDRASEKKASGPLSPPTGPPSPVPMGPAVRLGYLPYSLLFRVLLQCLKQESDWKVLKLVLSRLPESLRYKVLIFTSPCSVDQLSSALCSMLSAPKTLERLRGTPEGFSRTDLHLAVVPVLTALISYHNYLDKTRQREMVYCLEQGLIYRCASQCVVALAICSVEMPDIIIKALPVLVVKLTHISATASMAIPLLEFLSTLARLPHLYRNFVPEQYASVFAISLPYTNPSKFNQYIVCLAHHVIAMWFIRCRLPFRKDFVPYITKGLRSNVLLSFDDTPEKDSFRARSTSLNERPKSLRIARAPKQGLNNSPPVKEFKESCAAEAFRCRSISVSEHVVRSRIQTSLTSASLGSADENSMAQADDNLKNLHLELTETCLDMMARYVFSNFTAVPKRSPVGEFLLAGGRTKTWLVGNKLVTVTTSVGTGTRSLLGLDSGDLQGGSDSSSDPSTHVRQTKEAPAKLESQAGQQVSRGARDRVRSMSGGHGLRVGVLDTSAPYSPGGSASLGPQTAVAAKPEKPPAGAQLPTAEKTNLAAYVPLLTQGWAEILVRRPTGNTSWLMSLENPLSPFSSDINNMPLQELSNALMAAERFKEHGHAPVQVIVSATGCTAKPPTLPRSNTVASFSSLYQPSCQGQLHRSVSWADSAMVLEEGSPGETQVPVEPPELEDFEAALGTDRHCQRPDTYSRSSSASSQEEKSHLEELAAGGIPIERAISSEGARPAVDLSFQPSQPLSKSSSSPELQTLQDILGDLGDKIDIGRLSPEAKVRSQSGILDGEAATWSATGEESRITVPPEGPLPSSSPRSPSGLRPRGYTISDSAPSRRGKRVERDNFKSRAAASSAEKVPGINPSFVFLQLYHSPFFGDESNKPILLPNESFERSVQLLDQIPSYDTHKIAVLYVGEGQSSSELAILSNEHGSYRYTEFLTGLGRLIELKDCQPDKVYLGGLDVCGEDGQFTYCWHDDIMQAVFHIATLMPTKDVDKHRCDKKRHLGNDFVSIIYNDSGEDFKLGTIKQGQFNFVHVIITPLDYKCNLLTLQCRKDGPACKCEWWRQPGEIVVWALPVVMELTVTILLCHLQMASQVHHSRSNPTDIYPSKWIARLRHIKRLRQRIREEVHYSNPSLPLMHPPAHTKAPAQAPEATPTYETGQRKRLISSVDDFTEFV
UniProt P60843: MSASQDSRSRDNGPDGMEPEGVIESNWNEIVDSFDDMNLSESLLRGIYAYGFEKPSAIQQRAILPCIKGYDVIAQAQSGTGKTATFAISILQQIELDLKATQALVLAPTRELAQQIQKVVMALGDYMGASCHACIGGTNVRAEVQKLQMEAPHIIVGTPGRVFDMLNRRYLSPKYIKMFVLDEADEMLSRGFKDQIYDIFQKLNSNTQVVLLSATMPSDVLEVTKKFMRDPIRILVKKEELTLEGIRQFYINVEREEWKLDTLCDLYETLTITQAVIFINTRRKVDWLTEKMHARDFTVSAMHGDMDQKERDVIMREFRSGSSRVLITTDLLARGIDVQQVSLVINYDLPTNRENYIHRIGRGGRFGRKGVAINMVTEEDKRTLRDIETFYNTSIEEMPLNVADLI
UniProt P61406: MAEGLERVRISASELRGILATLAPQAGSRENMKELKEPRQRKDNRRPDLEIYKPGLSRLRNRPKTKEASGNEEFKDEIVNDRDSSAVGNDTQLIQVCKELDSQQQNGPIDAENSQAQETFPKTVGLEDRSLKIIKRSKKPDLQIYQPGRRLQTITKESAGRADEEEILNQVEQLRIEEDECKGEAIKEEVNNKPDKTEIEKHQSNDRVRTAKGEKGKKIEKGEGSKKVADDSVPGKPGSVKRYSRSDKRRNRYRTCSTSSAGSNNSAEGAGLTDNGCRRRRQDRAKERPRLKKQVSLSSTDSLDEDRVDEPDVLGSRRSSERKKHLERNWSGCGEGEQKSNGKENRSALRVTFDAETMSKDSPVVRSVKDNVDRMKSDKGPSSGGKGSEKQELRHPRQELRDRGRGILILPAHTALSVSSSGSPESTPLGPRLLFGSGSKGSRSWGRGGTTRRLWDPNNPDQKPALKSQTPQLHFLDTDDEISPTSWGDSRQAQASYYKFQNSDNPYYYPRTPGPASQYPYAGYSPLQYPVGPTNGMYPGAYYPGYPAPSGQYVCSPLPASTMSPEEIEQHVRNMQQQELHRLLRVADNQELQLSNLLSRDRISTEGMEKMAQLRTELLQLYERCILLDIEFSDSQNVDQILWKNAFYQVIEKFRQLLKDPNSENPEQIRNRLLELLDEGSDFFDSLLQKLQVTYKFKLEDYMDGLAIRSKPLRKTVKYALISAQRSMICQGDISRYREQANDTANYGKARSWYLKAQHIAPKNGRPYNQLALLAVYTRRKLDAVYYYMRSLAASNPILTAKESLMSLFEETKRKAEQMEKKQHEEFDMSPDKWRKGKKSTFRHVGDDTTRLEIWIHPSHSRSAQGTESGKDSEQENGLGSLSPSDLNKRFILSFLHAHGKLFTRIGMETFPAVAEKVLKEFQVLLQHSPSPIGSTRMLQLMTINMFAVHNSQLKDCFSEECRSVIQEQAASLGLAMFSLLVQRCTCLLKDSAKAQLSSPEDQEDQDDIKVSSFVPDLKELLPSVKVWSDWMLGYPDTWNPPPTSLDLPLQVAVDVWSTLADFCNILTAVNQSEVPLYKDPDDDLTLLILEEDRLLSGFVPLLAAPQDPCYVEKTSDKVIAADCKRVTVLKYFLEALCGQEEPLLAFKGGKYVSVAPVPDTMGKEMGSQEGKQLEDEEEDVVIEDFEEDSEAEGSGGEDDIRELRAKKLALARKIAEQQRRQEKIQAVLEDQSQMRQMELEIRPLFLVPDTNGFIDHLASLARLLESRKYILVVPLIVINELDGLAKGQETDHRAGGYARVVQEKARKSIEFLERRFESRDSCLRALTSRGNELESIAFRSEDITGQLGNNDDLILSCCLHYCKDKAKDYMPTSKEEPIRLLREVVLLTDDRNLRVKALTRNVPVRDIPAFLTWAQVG

No constants are given. Whether binding was seen depends on the method and setting. In cells and extracts the contact can be indirect. A yes stands for co-enrichment or nearness to the bait. Other partners may have been found. For part of these data: No binding means not detected with the bait.

In the first experiment the target is Flag-tagged eIF4A2^FL (mouse) (UniProt P10630). Briefly: affinity purification with mass spectrometry; anti-Flag M2 cross-linked (DMP) to Dynabeads; 1 mg lysate of Eif4a2 KO ESCs expressing only Flag-eIF4A2^FL or Flag-eIF4A2^PTC, after 1 µM epoxomicin for 3 h; 2 h at 4°C; compared with Flag IP from empty vector cells; label-free quantification, 5% FDR; not told whether nucleic acids were removed.
As to AGO2 (from UniProt Q8CJG0 1-860), the binding result is “binds”.

As for PUM1 (from UniProt Q80U78 1-1189), the binding result was “binds”.

As to UPF1 (from UniProt Q9EPU0 1-1124), the binding entry is listed as “binds”. On to TSC2 (from UniProt Q61037 1-1814), for which the binding result is recorded as “no binding”. Take eIF4A1 (from UniProt P60843 1-406): the binding entry is “no binding”. For SMG6 (from UniProt P61406 1-1418), the binding result was “binds”. Turning to RAF1 (from UniProt Q99N57 1-648), the binding result was “no binding”. For the molecule B1, the binding entry was “binds”.

With B2, the binding entry is “binds”. Still for that read-out and setting: then B3, with “binds”.

On to B4, for which the binding result is “no binding”.

The target in another experiment is Flag-tagged eIF4A2^PTC (mouse). The description is as above.
Consider B1, for which the binding result is on record as “binds”. With B2, the binding result is recorded as “binds”.

With B3, the binding result was “binds”. Same read-out and setting: then B4, with “binds”.
